Laboratory results as given in publication PMC7522278.
Results are given in words; binding and its absence hold for the method and conditions named. In cells and extracts the contact can be indirect. Some entries that bind do so weakly or less than the wild type. For some of these results: Sequences can lack the tags named with a protein. Values belong to the molecule of their own block, whether it stands above or below them.

The chains behind the UniProt entries cited, without tags or fusion partners.
UniProt Q13164: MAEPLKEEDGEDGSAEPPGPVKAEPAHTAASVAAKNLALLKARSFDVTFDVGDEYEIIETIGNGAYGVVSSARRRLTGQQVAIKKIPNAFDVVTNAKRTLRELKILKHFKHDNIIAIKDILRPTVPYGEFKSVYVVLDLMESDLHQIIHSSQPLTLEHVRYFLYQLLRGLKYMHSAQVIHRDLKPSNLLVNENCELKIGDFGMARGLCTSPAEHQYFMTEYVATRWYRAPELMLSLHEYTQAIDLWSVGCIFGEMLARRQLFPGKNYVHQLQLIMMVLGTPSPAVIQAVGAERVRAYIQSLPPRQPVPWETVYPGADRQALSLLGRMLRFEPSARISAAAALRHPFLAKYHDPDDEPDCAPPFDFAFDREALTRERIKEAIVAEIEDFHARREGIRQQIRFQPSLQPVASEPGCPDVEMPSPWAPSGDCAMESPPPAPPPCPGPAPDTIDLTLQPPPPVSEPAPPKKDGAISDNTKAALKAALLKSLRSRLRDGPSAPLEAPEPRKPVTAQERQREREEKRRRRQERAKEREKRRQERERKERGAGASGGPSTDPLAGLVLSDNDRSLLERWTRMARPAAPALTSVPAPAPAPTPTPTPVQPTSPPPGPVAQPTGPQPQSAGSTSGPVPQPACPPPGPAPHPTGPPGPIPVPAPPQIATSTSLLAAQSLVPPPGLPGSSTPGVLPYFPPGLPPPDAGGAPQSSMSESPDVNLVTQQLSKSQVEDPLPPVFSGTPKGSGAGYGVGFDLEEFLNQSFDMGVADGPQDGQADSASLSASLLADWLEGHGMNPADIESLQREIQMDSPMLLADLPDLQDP
UniProt P27361: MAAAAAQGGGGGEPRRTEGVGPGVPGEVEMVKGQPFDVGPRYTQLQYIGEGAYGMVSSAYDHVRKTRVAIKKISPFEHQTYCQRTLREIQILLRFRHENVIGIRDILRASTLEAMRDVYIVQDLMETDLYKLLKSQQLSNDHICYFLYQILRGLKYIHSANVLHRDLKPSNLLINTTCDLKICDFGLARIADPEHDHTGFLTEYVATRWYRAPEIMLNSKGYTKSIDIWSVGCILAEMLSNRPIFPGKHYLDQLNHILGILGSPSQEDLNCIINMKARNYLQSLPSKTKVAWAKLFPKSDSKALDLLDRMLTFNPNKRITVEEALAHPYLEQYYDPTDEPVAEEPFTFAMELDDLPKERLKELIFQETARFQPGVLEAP

Assays:
Test in all cases: co-IP; SFB-tagged bait transiently expressed in HEK293T; lysate in NETN buffer, S protein beads 2 h at 4 °C, three washes, Western blot; also with mock- or PMA-treated cells (binding not affected)
[1] = target: T1, C-terminal SFB-tagged DHPS (human) (UniProt P49366)
T1 sequence: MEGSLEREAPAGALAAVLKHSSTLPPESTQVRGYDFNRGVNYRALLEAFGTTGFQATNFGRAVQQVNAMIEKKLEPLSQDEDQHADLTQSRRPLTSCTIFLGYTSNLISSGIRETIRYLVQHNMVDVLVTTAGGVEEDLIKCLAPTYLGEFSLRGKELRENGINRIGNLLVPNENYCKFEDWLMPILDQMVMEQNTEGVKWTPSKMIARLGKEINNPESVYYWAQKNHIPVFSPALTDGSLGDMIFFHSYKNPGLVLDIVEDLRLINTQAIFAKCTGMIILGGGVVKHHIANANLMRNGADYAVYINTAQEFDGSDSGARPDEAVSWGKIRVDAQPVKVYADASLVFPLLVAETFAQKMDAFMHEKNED

[2] = target: T2, N-terminal SFB-tagged DHPS (human) (UniProt P49366)
T2 sequence: T1 sequence

[3] = target: T3, SFB-tagged full length (FL) DHPS (human) (UniProt P49366)
T3 sequence: T1 sequence

control protein ERK5 = control protein ERK5 (UniProt Q13164)

binding [1]: binds | binding [2]: binds | binding [3]: binds
Molecule: endogenous ERK1 (from UniProt P27361 1-379) (enzyme)

binding (control protein ERK5): no binding
B1: endogenous DHPS (enzyme, UniProt P49366 1-369)
chain: T1 sequence
